Test results published in the supplement of paper PMC10849652.
The other results are listed elsewhere or left out.

Protein sequences, listed by entry. Tags and fused reporters are not part of them. Lines headed by an entry give the natural chain unless they say otherwise; changes in a name come on top.
UniProt Q8N511: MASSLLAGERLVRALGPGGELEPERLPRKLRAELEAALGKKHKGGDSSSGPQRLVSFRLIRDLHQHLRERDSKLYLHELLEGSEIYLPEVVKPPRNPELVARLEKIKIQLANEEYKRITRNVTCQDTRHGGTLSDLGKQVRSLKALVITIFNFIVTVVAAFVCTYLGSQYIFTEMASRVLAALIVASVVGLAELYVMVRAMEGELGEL
UniProt P57088: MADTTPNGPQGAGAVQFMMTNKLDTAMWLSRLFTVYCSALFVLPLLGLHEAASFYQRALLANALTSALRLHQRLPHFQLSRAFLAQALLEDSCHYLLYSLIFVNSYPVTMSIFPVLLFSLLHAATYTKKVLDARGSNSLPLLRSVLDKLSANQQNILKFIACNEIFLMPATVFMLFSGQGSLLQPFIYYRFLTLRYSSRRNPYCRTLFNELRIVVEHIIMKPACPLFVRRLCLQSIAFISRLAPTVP
UniProt Q9HD45: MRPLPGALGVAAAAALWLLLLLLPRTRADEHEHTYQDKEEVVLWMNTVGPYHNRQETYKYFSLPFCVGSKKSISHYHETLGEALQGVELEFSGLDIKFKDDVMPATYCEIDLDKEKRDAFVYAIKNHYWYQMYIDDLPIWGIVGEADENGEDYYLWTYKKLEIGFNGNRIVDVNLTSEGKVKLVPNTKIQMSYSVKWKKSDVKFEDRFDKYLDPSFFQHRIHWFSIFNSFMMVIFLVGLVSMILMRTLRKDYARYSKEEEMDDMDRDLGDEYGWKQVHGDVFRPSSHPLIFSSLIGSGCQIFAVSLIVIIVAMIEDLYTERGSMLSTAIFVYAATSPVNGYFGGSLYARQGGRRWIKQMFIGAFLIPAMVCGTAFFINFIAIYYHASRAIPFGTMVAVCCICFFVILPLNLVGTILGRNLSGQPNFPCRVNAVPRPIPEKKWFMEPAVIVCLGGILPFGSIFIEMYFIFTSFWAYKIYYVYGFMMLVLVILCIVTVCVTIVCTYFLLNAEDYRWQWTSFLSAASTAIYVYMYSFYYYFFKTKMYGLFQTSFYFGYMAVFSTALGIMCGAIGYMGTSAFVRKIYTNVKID
UniProt Q9BRN9: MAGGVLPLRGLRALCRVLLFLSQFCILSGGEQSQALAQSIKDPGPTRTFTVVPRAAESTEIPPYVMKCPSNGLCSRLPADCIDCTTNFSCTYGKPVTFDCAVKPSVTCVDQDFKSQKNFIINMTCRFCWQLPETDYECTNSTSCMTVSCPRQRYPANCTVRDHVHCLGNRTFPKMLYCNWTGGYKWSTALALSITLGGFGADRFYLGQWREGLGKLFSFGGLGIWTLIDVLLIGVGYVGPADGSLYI
UniProt Q9NWD8: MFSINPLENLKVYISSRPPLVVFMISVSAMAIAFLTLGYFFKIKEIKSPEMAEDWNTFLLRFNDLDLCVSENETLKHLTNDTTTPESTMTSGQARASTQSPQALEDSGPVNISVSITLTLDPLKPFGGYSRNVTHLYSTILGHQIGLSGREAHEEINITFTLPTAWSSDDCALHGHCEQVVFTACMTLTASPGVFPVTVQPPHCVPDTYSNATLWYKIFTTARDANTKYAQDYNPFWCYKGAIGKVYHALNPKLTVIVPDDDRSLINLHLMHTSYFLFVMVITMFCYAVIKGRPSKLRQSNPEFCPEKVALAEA
UniProt Q9H0R3: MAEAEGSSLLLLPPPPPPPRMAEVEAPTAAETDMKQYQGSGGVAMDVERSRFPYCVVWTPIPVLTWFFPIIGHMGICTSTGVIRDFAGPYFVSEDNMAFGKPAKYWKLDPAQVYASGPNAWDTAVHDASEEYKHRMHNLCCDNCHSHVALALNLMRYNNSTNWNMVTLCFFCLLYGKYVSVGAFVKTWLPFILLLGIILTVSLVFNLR
UniProt O94886: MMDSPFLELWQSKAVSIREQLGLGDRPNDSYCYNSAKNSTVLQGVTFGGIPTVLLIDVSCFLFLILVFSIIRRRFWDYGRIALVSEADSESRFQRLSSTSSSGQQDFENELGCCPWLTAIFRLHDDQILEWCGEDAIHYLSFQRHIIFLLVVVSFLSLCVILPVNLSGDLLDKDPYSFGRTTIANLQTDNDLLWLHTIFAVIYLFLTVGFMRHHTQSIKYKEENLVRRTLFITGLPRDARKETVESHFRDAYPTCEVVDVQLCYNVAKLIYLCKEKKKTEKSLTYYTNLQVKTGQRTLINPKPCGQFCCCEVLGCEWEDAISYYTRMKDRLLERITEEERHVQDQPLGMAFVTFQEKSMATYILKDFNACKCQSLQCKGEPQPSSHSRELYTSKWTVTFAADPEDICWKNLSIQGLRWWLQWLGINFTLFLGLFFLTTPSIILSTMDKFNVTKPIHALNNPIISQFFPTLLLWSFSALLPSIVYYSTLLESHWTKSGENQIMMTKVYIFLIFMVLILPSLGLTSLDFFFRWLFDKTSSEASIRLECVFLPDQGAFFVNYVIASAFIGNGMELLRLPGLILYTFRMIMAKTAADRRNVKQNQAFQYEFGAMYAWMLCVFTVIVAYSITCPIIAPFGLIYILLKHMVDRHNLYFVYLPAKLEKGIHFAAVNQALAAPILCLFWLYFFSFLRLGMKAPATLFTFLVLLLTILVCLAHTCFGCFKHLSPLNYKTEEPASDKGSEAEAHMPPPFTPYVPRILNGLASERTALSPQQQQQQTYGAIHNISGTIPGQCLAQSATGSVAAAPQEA
UniProt Q8TDI8: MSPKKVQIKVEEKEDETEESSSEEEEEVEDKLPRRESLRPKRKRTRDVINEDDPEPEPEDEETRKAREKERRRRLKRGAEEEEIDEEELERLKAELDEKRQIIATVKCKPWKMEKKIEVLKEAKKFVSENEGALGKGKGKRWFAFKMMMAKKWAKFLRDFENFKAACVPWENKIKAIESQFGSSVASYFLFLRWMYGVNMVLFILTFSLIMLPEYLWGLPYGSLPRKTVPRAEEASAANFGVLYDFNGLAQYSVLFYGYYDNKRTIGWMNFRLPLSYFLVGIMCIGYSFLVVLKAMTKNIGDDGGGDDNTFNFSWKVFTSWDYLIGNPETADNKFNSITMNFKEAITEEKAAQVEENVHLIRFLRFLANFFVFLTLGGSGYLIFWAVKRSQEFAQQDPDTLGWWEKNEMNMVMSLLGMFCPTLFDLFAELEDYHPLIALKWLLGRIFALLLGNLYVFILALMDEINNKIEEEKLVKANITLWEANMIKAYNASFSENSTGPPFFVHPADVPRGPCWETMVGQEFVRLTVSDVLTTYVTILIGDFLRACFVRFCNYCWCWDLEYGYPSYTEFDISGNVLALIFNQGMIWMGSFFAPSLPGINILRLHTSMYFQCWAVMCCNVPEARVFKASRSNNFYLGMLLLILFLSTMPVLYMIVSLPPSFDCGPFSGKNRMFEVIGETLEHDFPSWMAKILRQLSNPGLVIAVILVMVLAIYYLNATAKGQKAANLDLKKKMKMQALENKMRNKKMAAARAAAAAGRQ
UniProt Q9BZW5, whole entry, looked up: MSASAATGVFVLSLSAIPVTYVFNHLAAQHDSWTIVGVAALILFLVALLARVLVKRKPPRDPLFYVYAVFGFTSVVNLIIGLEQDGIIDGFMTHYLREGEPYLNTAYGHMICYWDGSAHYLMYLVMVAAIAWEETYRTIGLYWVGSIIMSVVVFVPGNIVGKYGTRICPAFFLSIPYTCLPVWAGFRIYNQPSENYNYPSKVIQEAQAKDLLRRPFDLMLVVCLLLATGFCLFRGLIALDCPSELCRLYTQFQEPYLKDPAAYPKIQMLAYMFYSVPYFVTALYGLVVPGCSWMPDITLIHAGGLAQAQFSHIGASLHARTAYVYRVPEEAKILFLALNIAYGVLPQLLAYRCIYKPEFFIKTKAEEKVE
UniProt Q9Y2S6, whole entry, looked up: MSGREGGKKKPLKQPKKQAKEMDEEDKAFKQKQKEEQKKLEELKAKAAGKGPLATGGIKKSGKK
UniProt O14763, whole entry, looked up: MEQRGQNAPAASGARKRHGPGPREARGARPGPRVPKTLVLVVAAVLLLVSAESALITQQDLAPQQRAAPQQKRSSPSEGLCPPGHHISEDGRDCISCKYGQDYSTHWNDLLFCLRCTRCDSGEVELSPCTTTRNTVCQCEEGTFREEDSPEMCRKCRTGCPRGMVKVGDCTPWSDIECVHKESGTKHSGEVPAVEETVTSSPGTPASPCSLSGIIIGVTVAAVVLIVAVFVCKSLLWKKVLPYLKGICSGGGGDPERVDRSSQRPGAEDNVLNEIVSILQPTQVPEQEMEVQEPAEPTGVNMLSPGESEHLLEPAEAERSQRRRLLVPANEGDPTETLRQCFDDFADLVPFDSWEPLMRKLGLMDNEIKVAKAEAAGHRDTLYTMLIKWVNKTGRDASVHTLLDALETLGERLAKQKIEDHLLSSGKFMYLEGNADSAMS
UniProt Q92544: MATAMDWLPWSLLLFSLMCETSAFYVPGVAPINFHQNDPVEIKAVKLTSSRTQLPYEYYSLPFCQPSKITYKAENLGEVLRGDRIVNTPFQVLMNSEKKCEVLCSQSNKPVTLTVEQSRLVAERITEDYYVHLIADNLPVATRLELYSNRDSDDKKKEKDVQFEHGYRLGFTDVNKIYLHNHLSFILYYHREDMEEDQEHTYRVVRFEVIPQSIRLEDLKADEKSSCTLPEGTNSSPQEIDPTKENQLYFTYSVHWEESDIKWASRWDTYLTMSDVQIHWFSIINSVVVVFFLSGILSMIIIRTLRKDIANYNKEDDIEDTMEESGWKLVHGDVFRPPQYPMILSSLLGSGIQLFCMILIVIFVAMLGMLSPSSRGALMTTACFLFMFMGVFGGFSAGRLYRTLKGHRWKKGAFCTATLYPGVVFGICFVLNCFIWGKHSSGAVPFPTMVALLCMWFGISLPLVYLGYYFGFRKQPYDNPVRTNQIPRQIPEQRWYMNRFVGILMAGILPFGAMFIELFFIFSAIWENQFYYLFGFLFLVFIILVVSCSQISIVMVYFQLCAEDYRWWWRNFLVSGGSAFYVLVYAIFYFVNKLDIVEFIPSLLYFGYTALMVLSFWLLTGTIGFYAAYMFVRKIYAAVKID
UniProt Q12893: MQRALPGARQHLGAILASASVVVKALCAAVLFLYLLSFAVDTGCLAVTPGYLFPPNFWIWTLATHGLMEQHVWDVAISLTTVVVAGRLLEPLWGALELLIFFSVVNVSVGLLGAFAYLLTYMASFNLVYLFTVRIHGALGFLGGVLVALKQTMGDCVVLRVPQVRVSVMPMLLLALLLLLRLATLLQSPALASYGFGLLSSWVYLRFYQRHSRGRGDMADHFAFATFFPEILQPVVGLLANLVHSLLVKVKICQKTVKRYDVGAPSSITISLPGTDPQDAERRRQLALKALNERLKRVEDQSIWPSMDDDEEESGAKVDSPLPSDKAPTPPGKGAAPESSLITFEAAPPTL
UniProt Q96B77: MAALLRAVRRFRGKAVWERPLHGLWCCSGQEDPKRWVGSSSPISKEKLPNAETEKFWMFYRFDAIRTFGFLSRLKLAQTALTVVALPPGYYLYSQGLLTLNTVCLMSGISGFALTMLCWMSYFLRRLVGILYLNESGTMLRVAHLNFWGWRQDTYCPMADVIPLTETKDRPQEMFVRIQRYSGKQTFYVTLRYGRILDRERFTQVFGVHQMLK
UniProt Q9NZR1: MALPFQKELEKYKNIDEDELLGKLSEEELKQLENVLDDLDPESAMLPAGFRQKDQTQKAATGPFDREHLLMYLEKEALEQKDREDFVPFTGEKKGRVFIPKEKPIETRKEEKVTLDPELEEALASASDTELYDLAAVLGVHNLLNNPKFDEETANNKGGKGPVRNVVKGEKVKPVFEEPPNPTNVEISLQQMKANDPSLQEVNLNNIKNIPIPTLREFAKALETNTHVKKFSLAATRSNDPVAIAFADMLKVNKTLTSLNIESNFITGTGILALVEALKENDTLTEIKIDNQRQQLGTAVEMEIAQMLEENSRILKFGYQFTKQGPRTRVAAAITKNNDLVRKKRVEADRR

Key:
Assay in all cases: log2 fold change, soluble protein after heating vs DMSO (PISA); higher = thermal stabilisation; K562 cells, 10 uM, 30 min; active = over 0.2 and 3.5 SD of the protein, either way, in both replicates (recomputed)
[1] = compound: CS(=O)(=O)c1ccc(-c2cnc(N)c(C(=O)Nc3ccccc3)n2)cc1
Summary of the method: (§1)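 K562 cells at 2×10^6 cells/mL were treated with 10 μM compound for 30 min. Aliquots were heated for 3 min across 48°C-58°C, pooled, and extracted in PBS with 0.5% NP-40 at 4°C; soluble protein was the supernatant after 21,000xg for 90 min. Soluble protein was quantified by TMTpro 16plex LC-MS/MS with channel sums equalised, and reported as log2 fold change in thermal stability against DMSO controls, with values from duplicates.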

crizotinib = compound: C[C@@H](Oc1cc(-c2cnn(C3CCNCC3)c2)cnc1N)c1c(Cl)ccc(F)c1Cl [crizotinib]
Summary of the method: as §1

[2] = compound: C[C@@H]1COCCN1C2=NC(=NC(=C2)C3(CC3)S(=O)(=O)C)C4=C5C=CNC5=CC=C4
Summary of the method: as §1

[3] = compound: C[C@H](C1=CC=C(C=C1)C(=O)NC2=C3C=CNC3=NC=C2)N
Summary of the method: as §1

duvelisib = compound: C[C@H](Nc1ncnc2nc[nH]c12)c1cc2cccc(Cl)c2c(=O)n1-c1ccccc1 [duvelisib]
Summary of the method: as §1

gandotinib = compound: Cc1cc(Nc2cc(CN3CCOCC3)c3nc(C)c(Cc4ccc(Cl)cc4F)n3n2)n[nH]1 [gandotinib]
Summary of the method: as §1

tozasertib = compound: Cc1cc(Nc2cc(N3CCN(C)CC3)nc(Sc3ccc(NC(=O)C4CC4)cc3)n2)n[nH]1 [tozasertib]
Summary of the method: as §1

[4] = compound: Cc1cc(SCc2sc(-c3ccc(C(F)(F)F)cc3)nc2C)ccc1OCC(=O)O
Summary of the method: as §1

doramapimod = compound: Cc1ccc(-n2nc(C(C)(C)C)cc2NC(=O)Nc2ccc(OCCN3CCOCC3)c3ccccc23)cc1 [doramapimod]
Summary of the method: as §1

ispinesib = compound: Cc1ccc(C(=O)N(CCCN)[C@@H](c2nc3cc(Cl)ccc3c(=O)n2Cc2ccccc2)C(C)C)cc1 [ispinesib]
Summary of the method: as §1

bafetinib = compound: Cc1ccc(NC(=O)c2ccc(CN3CC[C@H](N(C)C)C3)c(C(F)(F)F)c2)cc1Nc1nccc(-c2cncnc2)n1 [bafetinib]
Summary of the method: as §1

[5] = compound: Cc1cccc(CC(=O)N2CCc3c2ccc(-c2cn(C)c4ncnc(N)c24)c3F)n1
Summary of the method: as §1

nilotinib = compound: Cc1cn(-c2cc(NC(=O)c3ccc(C)c(Nc4nccc(-c5cccnc5)n4)c3)cc(C(F)(F)F)c2)cn1 [nilotinib]
Summary of the method: as §1

[6] = compound: Cc1nc(Nc2n[nH]c3c2CN(C(=O)N[C@H](CN(C)C)c2ccccc2)C3(C)C)c2sccc2n1
Summary of the method: as §1

dasatinib = compound: Cc1nc(Nc2ncc(C(=O)Nc3c(C)cccc3Cl)s2)cc(N2CCN(CCO)CC2)n1 [dasatinib]
Summary of the method: as §1

[7] = compound: Cc1ncc(-c2ccnc(Nc3ccc(S(C)(=O)=O)cc3)n2)n1C(C)C
Summary of the method: as §1

[8] = compound: Cn1cc(-c2ccc3c(c2)CCN3C(=O)Cc2cccc(C(F)(F)F)c2)c2c(N)ncnc21
Summary of the method: as §1

[9] = compound: Cn1cc(-c2ccc3nnc(C(F)(F)c4ccc5ncccc5c4)n3n2)cn1
Summary of the method: as §1

tipifarnib = compound: Cn1cncc1[C@@](N)(c1ccc(Cl)cc1)c1ccc2c(c1)c(-c1cccc(Cl)c1)cc(=O)n2C [tipifarnib]
Summary of the method: as §1

mubritinib = compound: FC(F)(F)c1ccc(/C=C/c2nc(COc3ccc(CCCCn4ccnn4)cc3)co2)cc1 [mubritinib]
Summary of the method: as §1

Measured: log2 fold change

TMEM199 (UniProt Q8N511)
inactive: [1] -0.034 | crizotinib 0.086 | [2] -0.003 | [3] 0.056 | duvelisib 0.039 | gandotinib -0.008 | tozasertib -0.087 | [4] -0.039 | doramapimod 0.03 | ispinesib -0.121 | bafetinib -0.018 | [5] -0.12 | nilotinib -0.035 | [6] -0.02 | dasatinib 0.011 | [7] 0.013 | [8] -0.028 | [9] 0.082 | tipifarnib -0.058 | mubritinib -0.034

TMEM33 (UniProt P57088)
inactive: [1] 0.002 | crizotinib 0.041 | [2] 0.104 | [3] -0.117 | duvelisib 0.031 | gandotinib -0.055 | tozasertib 0.031 | [4] -0.021 | doramapimod -0.032 | ispinesib 0.047 | bafetinib -0.024 | [5] 0.016 | nilotinib -0.001 | [6] 0.008 | dasatinib 0.05 | [7] 0.002 | [8] 0.046 | [9] 0.002 | tipifarnib -0.019 | mubritinib 0.027

TM9SF3 (UniProt Q9HD45)
inactive: [1] 0.037 | crizotinib 0.072 | [2] 0.043 | [3] -0.152 | duvelisib -0.02 | gandotinib -0.016 | tozasertib -0.036 | [4] 0.056 | doramapimod -0.007 | ispinesib 0.162 | bafetinib 0.006 | [5] 0.032 | nilotinib -0.004 | [6] 0.019 | dasatinib 0.006 | [7] -0.018 | [8] 0.058 | [9] -0.003 | tipifarnib -0.067 | mubritinib 0.044

TM2D3 (UniProt Q9BRN9)
inactive: [1] 0.074 | crizotinib -0.112 | [2] -0.144 | [3] -0.02 | duvelisib 0.067 | gandotinib -0.004 | tozasertib 0.007 | [4] 0.067 | doramapimod -0.01 | ispinesib -0.063 | bafetinib 0.002 | [5] -0.108 | nilotinib -0.162 | [6] -0.035 | dasatinib 0.052 | [7] -0.014 | [8] -0.132 | [9] -0.014 | tipifarnib 0.133 | mubritinib -0.139

Copied from above (2 entries):
TMEM33 (UniProt P57088)
inactive: [1] 0.002 | crizotinib 0.041 | [2] 0.104 | [3] -0.117 | duvelisib 0.031 | gandotinib -0.055 | tozasertib 0.031 | [4] -0.021 | doramapimod -0.032 | ispinesib 0.047 | bafetinib -0.024 | [5] 0.016 | nilotinib -0.001 | [6] 0.008 | dasatinib 0.05 | [7] 0.002 | [8] 0.046 | [9] 0.002 | tipifarnib -0.019 | mubritinib 0.027

TM9SF3 (UniProt Q9HD45)
inactive: [1] 0.037 | crizotinib 0.072 | [2] 0.043 | [3] -0.152 | duvelisib -0.02 | gandotinib -0.016 | tozasertib -0.036 | [4] 0.056 | doramapimod -0.007 | ispinesib 0.162 | bafetinib 0.006 | [5] 0.032 | nilotinib -0.004 | [6] 0.019 | dasatinib 0.006 | [7] -0.018 | [8] 0.058 | [9] -0.003 | tipifarnib -0.067 | mubritinib 0.044

(list continues)

TMEM248 (UniProt Q9NWD8)
inactive: [1] -0.045 | crizotinib 0.063 | [2] -0.031 | [3] 0.059 | duvelisib 0.159 | gandotinib 0.001 | tozasertib 0.014 | [4] -0.14 | doramapimod 0.044 | ispinesib -0.051 | bafetinib -0.02 | [5] -0.082 | nilotinib -0.126 | [6] -0.007 | dasatinib 0.119 | [7] 0.067 | [8] 0.047 | [9] -0.021 | tipifarnib -0.052 | mubritinib 0.069

TMEM222 (UniProt Q9H0R3)
inactive: [1] 0.049 | crizotinib 0.035 | [2] 0.207 | [3] 0.161 | duvelisib -0.096 | gandotinib 0.031 | tozasertib 0.069 | [4] 0.155 | doramapimod 0.155 | ispinesib 0.113 | bafetinib 0.017 | [5] 0.148 | nilotinib -0.037 | [6] -0.092 | dasatinib 0.06 | [7] 0.003 | [8] -0.006 | [9] 0.053 | tipifarnib 0.118 | mubritinib -0.035

TMEM63A (UniProt O94886)
inactive: [1] 0.058 | crizotinib -0.072 | [2] 0.014 | [3] -0.029 | duvelisib 0.019 | gandotinib 0.018 | tozasertib -0.059 | [4] -0.04 | doramapimod 0.041 | bafetinib 0.089 | [5] -0.034 | nilotinib 0.038 | [6] 0.058 | dasatinib -0.006 | [7] 0.004 | [8] 0.032 | tipifarnib -0.016 | mubritinib 0.019

TMC1 (UniProt Q8TDI8)
inactive: [1] -0.049 | crizotinib 0.02 | [2] 0.113 | [3] 0.073 | duvelisib 0.153 | gandotinib -0.479 | tozasertib -0.073 | [4] -0.089 | doramapimod 0.1 | bafetinib 0.189 | [5] -0.011 | nilotinib -0.39 | [6] 0.179 | dasatinib 0.201 | [7] -0.177 | [8] 0.031 | tipifarnib 0.029 | mubritinib 0.01

TM6SF1 (UniProt Q9BZW5)
inactive: [1] 0.027 | crizotinib 0.113 | [2] -0.013 | [3] 0.173 | duvelisib -0.159 | gandotinib -0.034 | tozasertib 0 | [4] 0.004 | doramapimod -0.024 | ispinesib 0.114 | [5] 0.03 | nilotinib -0.031 | [6] -0.002 | dasatinib -0.021 | [7] -0.071 | [8] 0.101 | [9] -0.06 | tipifarnib 0.013 | mubritinib -0.04

TMA7 (UniProt Q9Y2S6)
inactive: [1] 0.045 | crizotinib 0.078 | [2] -0.003 | [3] -0.034 | duvelisib 0.044 | gandotinib -0.061 | tozasertib -0.031 | [4] -0.046 | doramapimod -0.034 | ispinesib -0.021 | bafetinib -0.028 | [5] -0.092 | nilotinib 0.007 | [6] -0.029 | dasatinib 0.008 | [7] -0.018 | [8] 0.016 | [9] 0.039 | tipifarnib -0.008 | mubritinib 0.047

TNFRSF10B (UniProt O14763)
inactive: [1] 0.016 | crizotinib 0.094 | [2] 0.073 | [3] 0.025 | duvelisib 0.21 | gandotinib -0.114 | tozasertib -0.254 | [4] -0.024 | doramapimod 0.014 | bafetinib 0.065 | [5] 0.03 | nilotinib 0.003 | [6] 0.086 | dasatinib 0.058 | [7] 0 | [8] -0.013 | tipifarnib 0.047 | mubritinib 0.105

TM9SF4 (UniProt Q92544)
active: [5] 0.252
inactive: [1] -0.029 | crizotinib -0.141 | [2] 0.036 | [3] 0.04 | gandotinib -0.189 | [4] 0.044 | doramapimod 0.034 | ispinesib -0.143 | bafetinib 0.034 | nilotinib 0.005 | [6] 0.012 | dasatinib 0.127 | [7] 0.037 | [8] -0.021 | [9] 0.004 | tipifarnib -0.061 | mubritinib 0.007

TMEM115 (UniProt Q12893)
inactive: [1] 0.006 | crizotinib 0.053 | [2] -0.05 | [3] -0.035 | duvelisib -0.018 | gandotinib -0.024 | tozasertib -0.061 | [4] -0.03 | doramapimod -0.019 | ispinesib 0.023 | bafetinib -0.084 | [5] 0.019 | nilotinib 0.017 | [6] 0.027 | dasatinib 0.065 | [7] 0.065 | [8] 0.047 | [9] -0.02 | tipifarnib 0.036 | mubritinib -0.032

TMEM186 (UniProt Q96B77)
inactive: [1] -0.07 | crizotinib -0.005 | [2] -0.039 | [3] -0.086 | duvelisib -0.022 | tozasertib 0.003 | [4] -0.083 | doramapimod 0.049 | ispinesib -0.079 | bafetinib -0.011 | nilotinib -0.082 | [6] 0.005 | dasatinib 0.059 | [7] 0.09 | [8] -0.007 | [9] 0.033 | tipifarnib 0.046 | mubritinib 0.049

TMOD2 (UniProt Q9NZR1)
inactive: [1] -0.028 | crizotinib 0.12 | [2] 0.154 | [3] -0.042 | duvelisib 0.106 | gandotinib -0.08 | tozasertib 0.17 | [4] -0.052 | doramapimod 0.027 | ispinesib 0.099 | bafetinib 0.049 | [5] 0.121 | nilotinib 0.1 | [6] 0.014 | dasatinib 0.062 | [7] 0.023 | [8] 0.287 | [9] 0.304 | tipifarnib -0.053 | mubritinib -0.071
